Patent publication US20260108469A1, “COMPOSITIONS COMPRISING WATER INSOLUBLE DRUGS AND METHODS OF PRODUCING AND USING SAME” (priority 2023, published 2026)
Not every detail of the peptide structures is certain; ends, links or a residue may be inferred. Where a SMILES comes first, the peptide text is derived from it. The star is where a group is joined. X1 = CCc1c2c(nc3ccc(OC(=O)[C@H]4CC[C@H](CNC(=O)[C@H]5CC[C@H](CN6C(=O)CC(*)C6=O)CC5)CC4)cc13)-c1cc3c(c(=O)n1C2)COC(=O)[C@]3(O)CC

Test system: HCT116 colorectal cancer cells
Test: In vivo efficacy, subcutaneous HCT116 CRC tumor growth inhibition
Design: species or system Balb/c nude mice

## CCc1c2c(nc3ccc(OC(=O)[C@H]4CC[C@H](CNC(=O)[C@H]5CC[C@H](CN6C(=O)CC(SC[C@H](N)C(=O)N[C@H](C(=O)N[C@@H](CCCCN)C(=O)N[C@@H](CCCNC(=N)N)C(=O)NCC(=O)N[C@@H](CC(C)C)C(=O)N[C@@H](CCCCN)C(=O)N[C@@H](CC(C)C)C(=O)N[C@@H](CCCNC(=N)N)C(=O)N[C@@H](Cc7c[nH]cn7)C(=O)N[C@H](C(=O)N[C@@H](CCCNC(=N)N)C(=O)N7CCC[C@H]7C(=O)N[C@@H](CCCNC(=N)N)C(=O)N[C@H](C(=O)N[C@H](C(=O)N[C@@H](CCCNC(=N)N)C(=O)N[C@@H](CCSC)C(=O)N[C@@H](CC(=O)O)C(=O)N[C@H](C(=O)O)C(C)C)[C@@H](C)O)C(C)C)C(C)C)C(C)C)C6=O)CC5)CC4)cc13)-c1cc3c(c(=O)n1C2)COC(=O)[C@]3(O)CC (some centres unmarked) [SN38-CPP, DPV1047-linker-SN38] (H-C(X1)VKRGLKLRHVRPRVTRMDV-OH)
Free conjugate 0.7 mg/kg IV BID QOD (the level given by NGs)
  reduced tumor volume: 12%
Free conjugate 80 mg/kg IV, 3 times a week
  reduced tumor volume: 52%
